Experimental data: paper PMC7017467
The exact form of at least one protein or probe is not confirmed. For some of these results: The comparison behind a weaker result is the experiment's own reference, which may not be listed here. For some of these results: At least one verdict was read from the data and is not stated in words by the source.

Key:
[1] = target: DasR (Streptomyces verticillus ATCC 15003) (UniProt A0A7M1Y6D7); test: EMSA; details: EMSA buffer (composition, pH and temperature not given), 30 min incubation, 6% native polyacrylamide gel, recombinant protein, protein details: C-terminal 6xHis (introduced by reverse primer), label: 5'-Cy5
[2] = test system: BlmR; test: EMSA; details: EMSA buffer (composition, pH and temperature not given), 30 min incubation, 6% native polyacrylamide gel, recombinant protein, protein details: 6xHis

Sequence	binding result [1]	binding result ([1]; GlcN-6P (>100 mM), original shifted band lost, new shifted band appears)	binding result ([1]; GlcN-6P (>50 mM), complex dissociates)	binding result ([2]; GlcN-6P, no dissociation)	binding result ([2]; GlcNAc, no dissociation)	binding result ([2]; no inducer)
ACCTTCTCCCTGGGCCGGGCTCTGTTAGATTGGTCTATACCACCCCAATCCCAAGATCGGCAGGCCCAGC (double strand) [PNagB]	binds	binds more weakly	–	–	–	–
CCGGACAGTTTCGCGCGTGGGGGTGGGAAAGGTCTAGTCCACTGTTCGACGGGTGCGGGATGGGGGCGCC (double strand) [PNagKA]	binds	–	binds more weakly	–	–	–
TAAGCCCGAACCCGCAAGGATGACGAATTGCAAAATTGTGCAAGTCGCTACATGATGGTCCGGCTGTGCC (double strand) [PBlmR-1]	–	–	–	binds	binds	binds
